Measured values: the supplement of paper PMC10849652
Some of the results follow.

Amino acid sequences for entries named in this document (tags omitted). A change or cut given only in a name is not applied to a line headed by its entry.
UniProt P03897, whole entry, looked up: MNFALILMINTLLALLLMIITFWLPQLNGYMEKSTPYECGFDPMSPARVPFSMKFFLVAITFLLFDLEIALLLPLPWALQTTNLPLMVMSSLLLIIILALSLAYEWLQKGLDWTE
UniProt P03923, whole entry, looked up: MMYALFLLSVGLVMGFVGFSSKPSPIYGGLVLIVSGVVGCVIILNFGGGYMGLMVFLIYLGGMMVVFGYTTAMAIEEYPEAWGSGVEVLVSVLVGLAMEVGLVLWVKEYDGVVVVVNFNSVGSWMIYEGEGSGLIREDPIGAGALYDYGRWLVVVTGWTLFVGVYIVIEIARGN
UniProt Q9Y623, whole entry, looked up: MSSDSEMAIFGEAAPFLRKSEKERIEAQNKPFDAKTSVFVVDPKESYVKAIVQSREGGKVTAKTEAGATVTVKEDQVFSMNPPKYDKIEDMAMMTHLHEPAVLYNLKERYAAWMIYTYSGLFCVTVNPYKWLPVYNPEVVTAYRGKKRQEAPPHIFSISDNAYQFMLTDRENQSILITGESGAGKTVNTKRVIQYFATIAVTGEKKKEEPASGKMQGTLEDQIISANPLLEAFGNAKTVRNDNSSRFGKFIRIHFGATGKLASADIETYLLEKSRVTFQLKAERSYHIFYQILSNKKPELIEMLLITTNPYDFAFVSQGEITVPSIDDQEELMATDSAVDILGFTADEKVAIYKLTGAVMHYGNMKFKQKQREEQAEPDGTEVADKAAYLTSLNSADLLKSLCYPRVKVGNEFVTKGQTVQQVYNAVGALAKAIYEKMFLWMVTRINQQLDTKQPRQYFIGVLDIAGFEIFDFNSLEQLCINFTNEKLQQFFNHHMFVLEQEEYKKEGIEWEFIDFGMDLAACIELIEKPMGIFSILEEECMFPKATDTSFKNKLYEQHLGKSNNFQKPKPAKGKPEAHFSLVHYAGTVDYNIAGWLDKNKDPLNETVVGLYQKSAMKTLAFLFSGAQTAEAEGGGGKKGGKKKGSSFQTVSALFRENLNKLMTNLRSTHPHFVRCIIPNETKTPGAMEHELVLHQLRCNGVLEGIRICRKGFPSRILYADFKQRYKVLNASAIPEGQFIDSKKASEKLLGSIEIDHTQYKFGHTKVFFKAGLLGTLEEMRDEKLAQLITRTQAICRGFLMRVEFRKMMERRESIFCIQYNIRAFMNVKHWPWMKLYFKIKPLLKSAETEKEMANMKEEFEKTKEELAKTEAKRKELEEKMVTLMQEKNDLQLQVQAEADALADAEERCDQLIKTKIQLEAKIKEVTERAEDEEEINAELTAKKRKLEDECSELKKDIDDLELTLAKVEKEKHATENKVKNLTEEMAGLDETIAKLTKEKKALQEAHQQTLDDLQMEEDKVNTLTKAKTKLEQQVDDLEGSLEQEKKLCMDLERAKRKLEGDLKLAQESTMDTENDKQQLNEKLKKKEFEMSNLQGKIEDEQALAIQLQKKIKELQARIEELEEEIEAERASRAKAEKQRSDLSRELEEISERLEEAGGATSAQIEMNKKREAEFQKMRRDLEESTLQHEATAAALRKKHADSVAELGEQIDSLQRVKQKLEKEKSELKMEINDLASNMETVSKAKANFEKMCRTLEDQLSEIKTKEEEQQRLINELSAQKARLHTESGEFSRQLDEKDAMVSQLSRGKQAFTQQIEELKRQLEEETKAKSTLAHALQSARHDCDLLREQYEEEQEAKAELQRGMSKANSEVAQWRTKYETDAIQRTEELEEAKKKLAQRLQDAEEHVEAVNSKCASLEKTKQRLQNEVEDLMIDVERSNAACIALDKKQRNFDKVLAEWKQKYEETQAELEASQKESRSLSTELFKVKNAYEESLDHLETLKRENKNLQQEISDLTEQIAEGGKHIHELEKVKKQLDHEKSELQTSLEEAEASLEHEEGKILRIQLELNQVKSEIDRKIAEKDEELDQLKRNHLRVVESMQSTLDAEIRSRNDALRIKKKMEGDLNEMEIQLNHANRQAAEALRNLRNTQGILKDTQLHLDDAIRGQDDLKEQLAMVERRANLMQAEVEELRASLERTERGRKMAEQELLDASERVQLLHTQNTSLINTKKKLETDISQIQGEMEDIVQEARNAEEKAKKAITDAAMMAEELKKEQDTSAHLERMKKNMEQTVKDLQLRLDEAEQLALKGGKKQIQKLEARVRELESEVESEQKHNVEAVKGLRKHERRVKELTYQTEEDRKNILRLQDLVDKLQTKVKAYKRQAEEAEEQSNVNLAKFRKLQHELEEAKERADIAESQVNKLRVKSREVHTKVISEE
UniProt P03886, whole entry, looked up: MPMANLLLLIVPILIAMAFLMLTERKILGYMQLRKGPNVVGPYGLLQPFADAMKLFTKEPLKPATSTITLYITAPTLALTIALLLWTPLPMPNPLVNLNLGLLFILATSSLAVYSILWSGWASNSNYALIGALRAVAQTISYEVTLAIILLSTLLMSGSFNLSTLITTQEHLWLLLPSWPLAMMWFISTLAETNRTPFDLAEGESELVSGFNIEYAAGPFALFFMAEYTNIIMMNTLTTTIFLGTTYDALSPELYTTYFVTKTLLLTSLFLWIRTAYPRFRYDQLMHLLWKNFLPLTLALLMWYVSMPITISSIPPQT
UniProt P00414, whole entry, looked up: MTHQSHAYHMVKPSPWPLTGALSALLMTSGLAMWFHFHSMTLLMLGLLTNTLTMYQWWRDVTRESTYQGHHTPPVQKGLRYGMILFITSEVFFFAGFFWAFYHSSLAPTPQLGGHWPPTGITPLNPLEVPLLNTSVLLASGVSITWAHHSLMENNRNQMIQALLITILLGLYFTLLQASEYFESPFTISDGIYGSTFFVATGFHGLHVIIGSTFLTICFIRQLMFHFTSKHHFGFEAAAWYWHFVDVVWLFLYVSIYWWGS
UniProt Q9P0P8: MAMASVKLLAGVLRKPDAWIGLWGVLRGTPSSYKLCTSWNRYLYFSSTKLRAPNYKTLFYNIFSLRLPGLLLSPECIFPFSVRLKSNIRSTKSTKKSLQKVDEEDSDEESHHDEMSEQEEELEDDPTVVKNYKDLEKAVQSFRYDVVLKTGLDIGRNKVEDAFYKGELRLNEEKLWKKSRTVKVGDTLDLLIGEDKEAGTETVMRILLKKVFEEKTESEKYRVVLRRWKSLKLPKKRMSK
UniProt Q6P1R3: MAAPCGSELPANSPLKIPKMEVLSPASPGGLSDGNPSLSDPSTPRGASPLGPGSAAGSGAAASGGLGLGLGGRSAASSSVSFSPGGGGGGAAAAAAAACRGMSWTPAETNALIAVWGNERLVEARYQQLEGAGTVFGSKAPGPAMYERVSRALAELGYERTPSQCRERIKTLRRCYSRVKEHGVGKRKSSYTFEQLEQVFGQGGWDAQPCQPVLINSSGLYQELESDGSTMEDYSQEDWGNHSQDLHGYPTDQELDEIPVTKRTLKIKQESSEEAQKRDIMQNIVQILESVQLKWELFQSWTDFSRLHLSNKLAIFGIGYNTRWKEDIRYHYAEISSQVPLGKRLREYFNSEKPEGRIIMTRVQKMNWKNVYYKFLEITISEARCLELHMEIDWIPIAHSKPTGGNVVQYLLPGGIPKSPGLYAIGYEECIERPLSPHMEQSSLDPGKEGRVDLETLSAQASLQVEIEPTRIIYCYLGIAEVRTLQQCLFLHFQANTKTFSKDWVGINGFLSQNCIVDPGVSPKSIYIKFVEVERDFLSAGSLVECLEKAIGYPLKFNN
UniProt Q9Y2Z2: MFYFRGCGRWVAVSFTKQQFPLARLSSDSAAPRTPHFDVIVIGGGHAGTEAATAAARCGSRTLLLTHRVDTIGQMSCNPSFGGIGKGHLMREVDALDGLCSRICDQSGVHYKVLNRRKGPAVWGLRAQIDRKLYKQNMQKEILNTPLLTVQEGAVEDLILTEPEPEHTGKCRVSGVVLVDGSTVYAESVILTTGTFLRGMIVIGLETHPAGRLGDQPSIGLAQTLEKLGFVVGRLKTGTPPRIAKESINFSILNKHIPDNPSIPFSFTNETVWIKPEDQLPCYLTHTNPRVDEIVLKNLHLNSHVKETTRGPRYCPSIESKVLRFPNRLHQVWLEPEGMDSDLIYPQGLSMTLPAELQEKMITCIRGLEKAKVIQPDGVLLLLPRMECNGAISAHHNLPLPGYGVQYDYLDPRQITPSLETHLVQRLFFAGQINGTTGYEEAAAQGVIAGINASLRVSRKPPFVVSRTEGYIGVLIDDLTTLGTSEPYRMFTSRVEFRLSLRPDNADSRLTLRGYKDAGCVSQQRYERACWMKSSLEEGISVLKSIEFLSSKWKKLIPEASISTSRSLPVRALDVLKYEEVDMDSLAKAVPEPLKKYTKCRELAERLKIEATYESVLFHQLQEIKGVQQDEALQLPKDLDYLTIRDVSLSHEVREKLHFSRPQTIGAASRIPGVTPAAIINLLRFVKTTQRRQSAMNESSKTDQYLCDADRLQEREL
UniProt Q96E29: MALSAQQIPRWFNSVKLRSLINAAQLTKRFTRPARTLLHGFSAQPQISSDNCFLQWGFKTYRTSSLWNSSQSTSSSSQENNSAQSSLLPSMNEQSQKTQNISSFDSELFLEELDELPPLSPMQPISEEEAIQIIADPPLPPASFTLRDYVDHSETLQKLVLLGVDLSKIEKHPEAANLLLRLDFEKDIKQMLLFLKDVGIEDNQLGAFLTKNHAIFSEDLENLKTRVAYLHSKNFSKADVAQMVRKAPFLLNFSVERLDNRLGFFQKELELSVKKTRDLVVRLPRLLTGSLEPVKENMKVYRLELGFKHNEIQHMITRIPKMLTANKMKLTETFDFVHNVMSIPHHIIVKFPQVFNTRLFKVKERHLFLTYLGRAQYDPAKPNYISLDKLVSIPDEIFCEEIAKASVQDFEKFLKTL
UniProt P46199: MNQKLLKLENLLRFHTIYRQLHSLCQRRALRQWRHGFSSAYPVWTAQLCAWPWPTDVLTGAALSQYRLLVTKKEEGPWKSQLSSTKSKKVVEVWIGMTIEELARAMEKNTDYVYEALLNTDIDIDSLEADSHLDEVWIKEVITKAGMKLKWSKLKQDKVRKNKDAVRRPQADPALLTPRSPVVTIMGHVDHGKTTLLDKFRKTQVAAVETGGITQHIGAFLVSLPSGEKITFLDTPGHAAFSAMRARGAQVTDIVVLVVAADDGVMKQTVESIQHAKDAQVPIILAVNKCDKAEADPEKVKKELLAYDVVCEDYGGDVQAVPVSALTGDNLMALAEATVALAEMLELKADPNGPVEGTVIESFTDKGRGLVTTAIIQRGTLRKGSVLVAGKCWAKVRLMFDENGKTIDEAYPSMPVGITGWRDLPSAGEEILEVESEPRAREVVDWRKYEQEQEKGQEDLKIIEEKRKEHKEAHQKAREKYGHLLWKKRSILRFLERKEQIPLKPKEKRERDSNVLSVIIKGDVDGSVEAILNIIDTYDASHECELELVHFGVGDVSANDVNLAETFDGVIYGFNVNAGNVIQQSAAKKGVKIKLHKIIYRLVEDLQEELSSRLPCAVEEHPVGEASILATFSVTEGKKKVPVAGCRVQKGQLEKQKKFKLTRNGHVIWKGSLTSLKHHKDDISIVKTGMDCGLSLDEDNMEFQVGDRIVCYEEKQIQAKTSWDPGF
UniProt Q9BTC8: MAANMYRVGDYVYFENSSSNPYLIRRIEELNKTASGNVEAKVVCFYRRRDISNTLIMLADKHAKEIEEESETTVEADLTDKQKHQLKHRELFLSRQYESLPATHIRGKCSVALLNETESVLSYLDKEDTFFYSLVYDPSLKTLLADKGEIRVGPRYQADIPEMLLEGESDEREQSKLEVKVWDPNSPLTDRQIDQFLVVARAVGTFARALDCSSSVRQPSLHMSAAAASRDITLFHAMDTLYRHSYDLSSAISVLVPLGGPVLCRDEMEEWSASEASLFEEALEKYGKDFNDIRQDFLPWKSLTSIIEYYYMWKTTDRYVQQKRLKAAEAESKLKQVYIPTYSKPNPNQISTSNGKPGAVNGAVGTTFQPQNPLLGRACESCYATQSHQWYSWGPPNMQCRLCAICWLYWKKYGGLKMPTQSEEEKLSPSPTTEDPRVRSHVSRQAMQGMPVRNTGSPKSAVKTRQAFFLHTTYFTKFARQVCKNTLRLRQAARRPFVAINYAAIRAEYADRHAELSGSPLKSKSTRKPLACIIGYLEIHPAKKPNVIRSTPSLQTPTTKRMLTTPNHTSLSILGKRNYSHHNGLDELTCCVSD

Key:
Assay in all cases: log2 fold change, soluble protein after heating vs DMSO (PISA); higher = thermal stabilisation; K562 cells, 10 uM, 30 min; active = over 0.2 and 3.5 SD of the protein, either way, in both replicates (recomputed)
[1] = compound: Cc1ccc(NC(=O)c2ccc(CN3CC[C@H](N(C)C)C3)c(C(F)(F)F)c2)cc1Nc1nccc(-c2cncnc2)n1 [bafetinib]
Outline: (§1)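 Quantification of soluble protein used TMTpro 16plex LC-MS/MS, with channel sums equalised. Samples were the supernatant after 21,000xg for 90 min of pooled aliquots from K562 cells (2×10^6 cells/mL) treated with 10 μM compound for 30 min, heated for 3 min over 48°C-58°C, and extracted in PBS with 0.5% NP-40 at 4°C. Values, from duplicates, describe thermal stability against control samples on a log2 fold-change scale.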

[2] = compound: Cc1cn(-c2cc(NC(=O)c3ccc(C)c(Nc4nccc(-c5cccnc5)n4)c3)cc(C(F)(F)F)c2)cn1 [nilotinib]
Outline: as §1

[3] = compound: Cc1nc(Nc2n[nH]c3c2CN(C(=O)N[C@H](CN(C)C)c2ccccc2)C3(C)C)c2sccc2n1
Outline: as §1

[4] = compound: Cc1ncc(-c2ccnc(Nc3ccc(S(C)(=O)=O)cc3)n2)n1C(C)C
Outline: as §1

[5] = compound: Cn1cc(-c2ccc3nnc(C(F)(F)c4ccc5ncccc5c4)n3n2)cn1
Outline: as §1

[6] = compound: Cc1nc(Nc2ncc(C(=O)Nc3c(C)cccc3Cl)s2)cc(N2CCN(CCO)CC2)n1 [dasatinib]
Outline: as §1

[7] = compound: Cn1cc(-c2ccc3c(c2)CCN3C(=O)Cc2cccc(C(F)(F)F)c2)c2c(N)ncnc21
Outline: as §1

[8] = compound: FC(F)(F)c1ccc(/C=C/c2nc(COc3ccc(CCCCn4ccnn4)cc3)co2)cc1 [mubritinib]
Outline: as §1

[9] = compound: NC(=O)Nc1cc(-c2cccc(F)c2)sc1C(=O)N[C@H]1CCCNC1
Outline: as §1

[10] = compound: NC(=O)c1cnc(N[C@@H]2CCCC[C@@H]2N)nc1Nc1cccc(-n2nccn2)c1
Outline: as §1

[11] = compound: NC1(c2ccc(-c3nc4ccn5c(=O)[nH]nc5c4cc3-c3ccccc3)cc2)CCC1
Outline: as §1

[12] = compound: NCC(=O)Nc1ccc(-n2nc(C(F)(F)F)cc2-c2ccc3c(ccc4ccccc43)c2)cc1
Outline: as §1

[13] = compound: Nc1ccccc1NC(=O)c1ccc(CNC(=O)OCc2cccnc2)cc1 [entinostat]
Outline: as §1

[14] = compound: O=C(CCCCCCNC(=O)c1cnc(N(c2ccccc2)c2ccccc2Cl)nc1)NO [citarinostat]
Outline: as §1

[15] = compound: O=C(O)c1ccc2c(c1)nc(Nc1cccc(Cl)c1)c1ccncc12 [silmitasertib]
Outline: as §1

[16] = compound: c1cc(OCCN2CCCCC2)cc(-c2n[nH]c3ccc(-c4nnc[nH]4)cc23)c1
Outline: as §1

[17] = compound: Cn1cncc1[C@@](N)(c1ccc(Cl)cc1)c1ccc2c(c1)c(-c1cccc(Cl)c1)cc(=O)n2C [tipifarnib]
Outline: as §1

[18] = compound: O=C1NC(=O)C(c2cnc3ccccn23)=C1c1cn2c3c(cc(F)cc13)CN(C(=O)N1CCCCC1)CC2
Outline: as §1

[19] = compound: Cc1cccc(CC(=O)N2CCc3c2ccc(-c2cn(C)c4ncnc(N)c24)c3F)n1
Outline: as §1

[20] = compound: O=C(CCCCCCC(=O)Nc1ccccc1)NO [vorinostat]
Outline: as §1

Target | log2 fold change [1] | log2 fold change [2] | log2 fold change [3] | log2 fold change [4] | log2 fold change [5] | log2 fold change [6] | log2 fold change [7] | log2 fold change [8] | log2 fold change [9] | log2 fold change [10] | log2 fold change [11] | log2 fold change [12] | log2 fold change [13] | log2 fold change [14] | log2 fold change [15] | log2 fold change [16] | log2 fold change [17] | log2 fold change [18] | log2 fold change [19] | log2 fold change [20]
MT-ND3 (UniProt P03897) | inactive: 0.229 | inactive: -0.021 | inactive: 0.158 | inactive: -0.04 | inactive: 0.121 | – | – | – | – | – | – | – | – | – | – | – | – | – | – | –
MT-ND6 (UniProt P03923) | inactive: -0.106 | inactive: 0.094 | inactive: -0.113 | inactive: -0.097 | – | inactive: 0.18 | inactive: -0.062 | inactive: -0.145 | inactive: -0.068 | inactive: -0.114 | inactive: -0.064 | inactive: -0.076 | inactive: 0.045 | inactive: -0.011 | inactive: -0.02 | inactive: -0.083 | – | – | – | –
MYH4 (UniProt Q9Y623) | – | – | – | – | – | – | – | – | – | – | – | – | – | inactive: -1.18 | – | inactive: -1.41 | – | – | – | –
MT-ND1 (UniProt P03886) | inactive: -0.199 | inactive: 0.102 | inactive: -0.079 | inactive: -0.061 | inactive: -0.036 | inactive: -0.149 | inactive: 0.066 | inactive: 0.114 | inactive: 0.166 | inactive: 0.244 | inactive: -0.004 | inactive: 0.289 | inactive: -0.051 | inactive: 0.05 | inactive: 0.039 | inactive: -0.075 | active: 0.633 | inactive: 0.1 | – | –
MTMR4 (UniProt Q9NYA4) | – | – | – | – | inactive: 0.069 | – | – | – | inactive: -0.056 | – | – | – | inactive: -0.02 | – | – | – | – | – | – | –
MT-CO3 (UniProt P00414) | – | – | – | – | inactive: -0.008 | inactive: -0.336 | inactive: 0.005 | inactive: -0.122 | inactive: -0.002 | inactive: -0.049 | inactive: -0.061 | inactive: -0.119 | inactive: -0.161 | – | inactive: -0.114 | – | inactive: 0.03 | – | – | –
MYO18B isoform 3 (UniProt Q8IUG5) | inactive: -0.041 | inactive: -0.089 | inactive: -0.055 | inactive: 0.03 | inactive: 0.077 | – | – | – | inactive: -0.475 | inactive: -0.417 | – | – | inactive: -0.103 | inactive: -0.196 | – | inactive: -0.238 | – | inactive: -0.047 | – | –
MTCH2 (UniProt E9PIE4) | inactive: -0.128 | inactive: 0.017 | inactive: -0.023 | inactive: -0.005 | – | inactive: 0.069 | – | inactive: 0 | inactive: 0.02 | inactive: -0.018 | inactive: -0.05 | inactive: -0.019 | inactive: -0.066 | inactive: 0.019 | inactive: 0.032 | inactive: -0.017 | inactive: -0.003 | inactive: -0.012 | – | –
MTRES1 (UniProt Q9P0P8) | – | – | – | – | – | – | – | inactive: 0.022 | – | inactive: 0.098 | inactive: -0.125 | – | – | inactive: -0.001 | inactive: 0.083 | inactive: -0.022 | inactive: 0.045 | inactive: -0.059 | – | –
MSANTD2 (UniProt Q6P1R3) | – | – | – | – | – | inactive: -0.042 | – | – | inactive: -0.041 | – | – | inactive: -0.065 | inactive: -0.184 | inactive: -0.124 | – | inactive: 0.16 | – | inactive: 0.004 | – | –
MTO1 isoform 6 (UniProt Q9Y2Z2) | – | inactive: -0.077 | inactive: -0.057 | inactive: 0.033 | inactive: 0.085 | inactive: -0.233 | inactive: -0.027 | inactive: -0.104 | inactive: 0.081 | inactive: 0.019 | inactive: -0.248 | inactive: -0.161 | inactive: 0.086 | inactive: 0.108 | inactive: -0.141 | inactive: -0.057 | inactive: -0.098 | inactive: -0.112 | inactive: -0.01 | inactive: 0.056
MTERF3 (UniProt Q96E29) | inactive: 0.149 | – | – | – | inactive: 0.197 | inactive: 0.013 | – | inactive: -0.224 | inactive: 0.058 | – | inactive: 0.112 | – | inactive: 0.077 | – | inactive: 0.344 | – | – | – | inactive: -0.113 | inactive: 0.119
MTIF2 (UniProt P46199) | – | – | – | – | – | – | – | – | inactive: -0.003 | – | – | – | inactive: 0.119 | – | – | – | – | inactive: -0.147 | – | –
MTA3 (UniProt Q9BTC8) | – | – | – | – | – | inactive: -0.01 | – | – | inactive: 0.066 | – | – | – | inactive: 0 | inactive: 0.041 | – | inactive: 0.659 | inactive: 0.193 | inactive: -0.164 | inactive: 0.086 | inactive: 0.236
MT-CO1 (UniProt P00395) | inactive: 0.006 | inactive: 0.034 | inactive: 0.02 | inactive: -0.051 | inactive: -0.059 | – | inactive: -0.108 | inactive: -0.017 | inactive: -0.035 | inactive: 0.21 | inactive: -0.06 | inactive: 0.016 | inactive: -0.025 | inactive: 0.037 | inactive: -0.03 | inactive: -0.031 | inactive: -0.234 | – | – | –
